Publication PMC6590835, “A unified mechanism for LLPS of ALS/FTLD-causing FUS as well as its modulation by ATP and oligonucleic acids”

Key:
[1] = biological target: T1, FUS F-CTD (RGG2-ZnF-RGG3, ZnF folded) (UniProt P35637); experiment: DIC microscopy (LLPS induced 1:2, dissolved 1:10); conditions: 1 mM MgCl2, Zn2+, indirect read-out; 20 uM protein, 5 mM sodium phosphate pH 6.0, 1 mM MgCl2 (ZnCl2 added for full-length FUS and F-CTD), 25 C; recombinant protein; residues 371-526
T1 sequence (looked up): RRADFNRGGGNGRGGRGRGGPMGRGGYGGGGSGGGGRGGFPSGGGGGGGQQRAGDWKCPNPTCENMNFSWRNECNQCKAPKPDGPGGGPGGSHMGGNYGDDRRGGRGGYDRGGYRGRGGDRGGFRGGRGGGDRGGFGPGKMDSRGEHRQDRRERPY

FUS full-length = biological target: T2, FUS full-length (UniProt P35637); experiment: DIC microscopy (LLPS enhanced 1:2, dissolved 1:15); conditions: 1 mM MgCl2, indirect read-out; 20 uM protein, 5 mM sodium phosphate pH 6.0, 1 mM MgCl2 (ZnCl2 added for full-length FUS and F-CTD), 25 C; recombinant protein; residues 1-526
T2 sequence (looked up): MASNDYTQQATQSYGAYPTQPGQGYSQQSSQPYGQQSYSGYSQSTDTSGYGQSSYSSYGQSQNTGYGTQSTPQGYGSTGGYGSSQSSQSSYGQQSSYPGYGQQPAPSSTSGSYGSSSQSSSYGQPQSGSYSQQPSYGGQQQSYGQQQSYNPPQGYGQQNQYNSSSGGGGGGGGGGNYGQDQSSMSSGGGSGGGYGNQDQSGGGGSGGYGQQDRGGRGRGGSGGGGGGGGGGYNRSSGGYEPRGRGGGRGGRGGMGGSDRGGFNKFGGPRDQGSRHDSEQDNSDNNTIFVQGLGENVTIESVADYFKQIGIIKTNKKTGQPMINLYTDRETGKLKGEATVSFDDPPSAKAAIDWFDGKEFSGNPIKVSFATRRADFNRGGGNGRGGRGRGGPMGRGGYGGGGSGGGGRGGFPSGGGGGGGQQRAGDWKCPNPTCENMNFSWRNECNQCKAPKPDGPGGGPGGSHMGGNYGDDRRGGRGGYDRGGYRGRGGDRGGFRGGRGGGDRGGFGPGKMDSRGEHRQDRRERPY

[2] = biological target: T3, FUS U-CTD (RGG2-ZnF-RGG3, ZnF unfolded) (UniProt P35637); experiment: DIC microscopy (LLPS induced then dissolved); conditions: 1 mM MgCl2, no Zn, indirect read-out; 20 uM protein, 5 mM sodium phosphate pH 6.0, 1 mM MgCl2 (ZnCl2 added for full-length FUS and F-CTD), 25 C; recombinant protein; residues 371-526
T3 sequence (looked up): T1 sequence (looked up)

FUS NTD (PLD+RGG1) = biological target: T4, FUS NTD (PLD+RGG1) (UniProt P35637); experiment: DIC microscopy (LLPS dissolved at 1:5); conditions: 1 mM MgCl2, indirect read-out; 20 uM protein, 5 mM sodium phosphate pH 6.0, 1 mM MgCl2 (ZnCl2 added for full-length FUS and F-CTD), 25 C; recombinant protein; residues 1-267
T4 sequence (looked up): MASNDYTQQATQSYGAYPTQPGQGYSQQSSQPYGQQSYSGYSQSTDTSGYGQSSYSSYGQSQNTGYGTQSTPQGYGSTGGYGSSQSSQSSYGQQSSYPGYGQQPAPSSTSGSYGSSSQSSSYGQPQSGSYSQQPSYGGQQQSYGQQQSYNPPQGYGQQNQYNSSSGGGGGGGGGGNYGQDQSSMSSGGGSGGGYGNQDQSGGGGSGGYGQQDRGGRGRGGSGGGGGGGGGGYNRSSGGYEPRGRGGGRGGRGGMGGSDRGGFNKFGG

Measured: binding result

UAGUUUGGUGAU [12-mer RNA]
binds: all assays above

The exact form of at least one protein or probe is not confirmed. At least one verdict rests on a figure or table, not on a statement of the authors. Tags and fusion partners may be left off the protein sequences shown.
